Results on 1 substance are retold here after PMC8436908.

Sequences of proteins named here, by UniProt entry; tags and fusion partners are left off.
UniProt O35864: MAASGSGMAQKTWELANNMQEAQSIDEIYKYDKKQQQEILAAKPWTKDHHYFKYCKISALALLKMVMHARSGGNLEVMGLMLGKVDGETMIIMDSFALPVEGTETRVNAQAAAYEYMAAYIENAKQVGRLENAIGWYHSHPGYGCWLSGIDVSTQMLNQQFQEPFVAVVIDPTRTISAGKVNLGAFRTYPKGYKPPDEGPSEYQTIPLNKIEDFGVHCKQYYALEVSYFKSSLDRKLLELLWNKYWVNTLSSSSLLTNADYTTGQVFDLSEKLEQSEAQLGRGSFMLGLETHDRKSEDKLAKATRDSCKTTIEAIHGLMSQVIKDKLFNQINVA

Results are given in words; binding and its absence hold for the method and conditions named. In cells and extracts the contact can be indirect. Some binding calls cover weakened binding; strength is not graded here.

This assay addresses T1, prolactin receptor (PRLR) (mouse (endogenous in GT1-7)) (UniProt Q08501).
T1 sequence: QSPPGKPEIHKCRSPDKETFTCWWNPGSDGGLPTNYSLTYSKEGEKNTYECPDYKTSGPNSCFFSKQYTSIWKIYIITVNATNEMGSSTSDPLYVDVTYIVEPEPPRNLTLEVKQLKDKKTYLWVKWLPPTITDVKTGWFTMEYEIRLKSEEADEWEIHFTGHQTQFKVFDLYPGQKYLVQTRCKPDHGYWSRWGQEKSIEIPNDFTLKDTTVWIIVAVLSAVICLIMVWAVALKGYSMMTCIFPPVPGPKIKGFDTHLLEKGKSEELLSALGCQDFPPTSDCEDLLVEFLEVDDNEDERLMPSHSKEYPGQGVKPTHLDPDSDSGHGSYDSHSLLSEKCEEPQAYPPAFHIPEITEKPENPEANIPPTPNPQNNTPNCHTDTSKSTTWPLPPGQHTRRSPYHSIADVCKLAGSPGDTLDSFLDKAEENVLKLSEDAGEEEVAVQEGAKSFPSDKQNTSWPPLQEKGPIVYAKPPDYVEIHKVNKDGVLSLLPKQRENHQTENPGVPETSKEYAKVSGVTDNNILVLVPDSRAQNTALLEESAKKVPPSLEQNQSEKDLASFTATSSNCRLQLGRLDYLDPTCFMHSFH
The assay can be described thus: co-IP; anti-PRLR antibody (IgG as control) added to RIPA lysate of GT1-7 cells at 4 C overnight, captured on protein A/G-agarose, western blot; cells treated for 72 h with blank CSF (Control), 200 ng/mL PRL (HPRL) or PRL + BSZY-D-containing CSF, with 10 uM MG132. (In general: In western blotting, separated proteins are transferred to a membrane and probed.)

With “CSN5 (from UniProt O35864 1-334) (enzyme)”, the binding entry is “binds”.
